Measured values from patent US20200008395A1, “METHOD OF USING HUMAN EXCREMENT AND SECRETIONS FOR EARLY DETECTION OF PARKINSON'S DISEASE” (NEURRX, SPC, priority 2017, published 2020).
The name of at least one read-out is uncertain.

Assay: Regression model of nutritional supplements and PD progression (PRO-PD score)
Type: in vivo, human
Conditions: positive report of consistently using supplement over the previous 6 months, adjusted for years since diagnosis
Source text: When the diagnosis comes 10-15 years or more into the disease, the contribution or effectiveness of a disease-modifying therapy is diminished. Conversely, early detection and intervention by disease-modifying therapies can reduce rate of PD progression or delay disease onset. […] As used herein, PRO-PD is the Patient Reported Outcomes in Parkinson's Disease rating scale, which is used to describe PD disease severity among individuals with a clinical diagnosis of PD.
Certain foods and supplements are known to be associated with different rates of PD progression.

For `C[C@]12CC[C@H](O)CC1=CC[C@@H]1[C@@H]2CC[C@]2(C)C(=O)CC[C@@H]12` [DHEA, dehydroepiandrosterone], the “Mean change in PRO-PD score (SE)*” value (age, and gender) was −87.6 and the “Mean change in PRO-PD score (SE)**” value (age, gender, and income) was −72.2.
